Test results published in paper doi:10.1101/2020.09.06.285270.
No constants are given. Whether binding was seen depends on the method and setting. Binding seen in cells or lysates may run through a third protein. A yes stands for co-enrichment or nearness to the bait. Other partners may have been found. Values belong to the molecule of their own block, whether it stands above or below them.

Amino acid sequences for entries named in this document (tags omitted). Residues count along the entry.
UniProt P54764, residues 20-986: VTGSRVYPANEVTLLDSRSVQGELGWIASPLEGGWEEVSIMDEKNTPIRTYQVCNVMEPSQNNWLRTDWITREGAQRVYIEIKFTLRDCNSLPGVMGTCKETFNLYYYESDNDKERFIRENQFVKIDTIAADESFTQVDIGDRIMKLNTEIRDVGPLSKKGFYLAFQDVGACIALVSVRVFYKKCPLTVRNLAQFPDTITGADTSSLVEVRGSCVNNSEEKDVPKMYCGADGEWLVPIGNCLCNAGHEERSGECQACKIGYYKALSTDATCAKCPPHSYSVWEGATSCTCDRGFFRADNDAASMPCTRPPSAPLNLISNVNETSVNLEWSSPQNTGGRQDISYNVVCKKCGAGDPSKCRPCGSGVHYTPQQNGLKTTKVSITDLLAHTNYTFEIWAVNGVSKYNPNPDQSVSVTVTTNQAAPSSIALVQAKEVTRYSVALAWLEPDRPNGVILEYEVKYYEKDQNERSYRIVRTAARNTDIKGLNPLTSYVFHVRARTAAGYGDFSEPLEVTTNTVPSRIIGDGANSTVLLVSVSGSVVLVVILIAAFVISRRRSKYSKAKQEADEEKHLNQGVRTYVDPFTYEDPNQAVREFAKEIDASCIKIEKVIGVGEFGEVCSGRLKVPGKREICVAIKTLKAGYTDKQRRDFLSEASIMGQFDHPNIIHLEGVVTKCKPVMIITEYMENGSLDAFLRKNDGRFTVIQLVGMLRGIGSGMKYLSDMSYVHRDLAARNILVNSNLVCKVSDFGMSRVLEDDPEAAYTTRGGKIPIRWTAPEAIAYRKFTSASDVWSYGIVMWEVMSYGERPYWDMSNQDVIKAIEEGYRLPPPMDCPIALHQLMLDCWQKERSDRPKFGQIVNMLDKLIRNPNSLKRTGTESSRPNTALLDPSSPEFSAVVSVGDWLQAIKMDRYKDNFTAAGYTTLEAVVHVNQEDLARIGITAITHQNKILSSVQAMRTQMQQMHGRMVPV
UniProt P54760, residues 16-987: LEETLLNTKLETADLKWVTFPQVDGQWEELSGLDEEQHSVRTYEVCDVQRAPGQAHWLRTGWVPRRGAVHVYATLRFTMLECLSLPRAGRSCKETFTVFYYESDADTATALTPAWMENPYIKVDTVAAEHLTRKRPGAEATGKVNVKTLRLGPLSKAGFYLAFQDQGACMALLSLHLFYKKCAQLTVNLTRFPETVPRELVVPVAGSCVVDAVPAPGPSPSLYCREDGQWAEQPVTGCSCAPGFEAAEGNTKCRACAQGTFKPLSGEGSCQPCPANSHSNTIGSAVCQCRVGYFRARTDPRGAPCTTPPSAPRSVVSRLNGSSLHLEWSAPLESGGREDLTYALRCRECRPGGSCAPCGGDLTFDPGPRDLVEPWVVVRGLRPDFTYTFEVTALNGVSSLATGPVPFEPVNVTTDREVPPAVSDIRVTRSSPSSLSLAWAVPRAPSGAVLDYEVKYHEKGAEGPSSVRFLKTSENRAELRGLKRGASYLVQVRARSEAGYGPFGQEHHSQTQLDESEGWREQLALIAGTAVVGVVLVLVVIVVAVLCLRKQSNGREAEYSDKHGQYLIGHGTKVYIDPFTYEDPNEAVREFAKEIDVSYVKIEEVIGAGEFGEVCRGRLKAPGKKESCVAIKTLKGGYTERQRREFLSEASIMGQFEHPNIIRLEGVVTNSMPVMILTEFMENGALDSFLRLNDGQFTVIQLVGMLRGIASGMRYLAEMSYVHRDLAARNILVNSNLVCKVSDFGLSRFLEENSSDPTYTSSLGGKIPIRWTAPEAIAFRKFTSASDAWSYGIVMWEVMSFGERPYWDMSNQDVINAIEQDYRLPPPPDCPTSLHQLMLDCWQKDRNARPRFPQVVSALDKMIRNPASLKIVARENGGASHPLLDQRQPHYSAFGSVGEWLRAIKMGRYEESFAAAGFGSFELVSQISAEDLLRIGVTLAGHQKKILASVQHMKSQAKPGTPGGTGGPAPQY
UniProt P29323, residues 19-1055: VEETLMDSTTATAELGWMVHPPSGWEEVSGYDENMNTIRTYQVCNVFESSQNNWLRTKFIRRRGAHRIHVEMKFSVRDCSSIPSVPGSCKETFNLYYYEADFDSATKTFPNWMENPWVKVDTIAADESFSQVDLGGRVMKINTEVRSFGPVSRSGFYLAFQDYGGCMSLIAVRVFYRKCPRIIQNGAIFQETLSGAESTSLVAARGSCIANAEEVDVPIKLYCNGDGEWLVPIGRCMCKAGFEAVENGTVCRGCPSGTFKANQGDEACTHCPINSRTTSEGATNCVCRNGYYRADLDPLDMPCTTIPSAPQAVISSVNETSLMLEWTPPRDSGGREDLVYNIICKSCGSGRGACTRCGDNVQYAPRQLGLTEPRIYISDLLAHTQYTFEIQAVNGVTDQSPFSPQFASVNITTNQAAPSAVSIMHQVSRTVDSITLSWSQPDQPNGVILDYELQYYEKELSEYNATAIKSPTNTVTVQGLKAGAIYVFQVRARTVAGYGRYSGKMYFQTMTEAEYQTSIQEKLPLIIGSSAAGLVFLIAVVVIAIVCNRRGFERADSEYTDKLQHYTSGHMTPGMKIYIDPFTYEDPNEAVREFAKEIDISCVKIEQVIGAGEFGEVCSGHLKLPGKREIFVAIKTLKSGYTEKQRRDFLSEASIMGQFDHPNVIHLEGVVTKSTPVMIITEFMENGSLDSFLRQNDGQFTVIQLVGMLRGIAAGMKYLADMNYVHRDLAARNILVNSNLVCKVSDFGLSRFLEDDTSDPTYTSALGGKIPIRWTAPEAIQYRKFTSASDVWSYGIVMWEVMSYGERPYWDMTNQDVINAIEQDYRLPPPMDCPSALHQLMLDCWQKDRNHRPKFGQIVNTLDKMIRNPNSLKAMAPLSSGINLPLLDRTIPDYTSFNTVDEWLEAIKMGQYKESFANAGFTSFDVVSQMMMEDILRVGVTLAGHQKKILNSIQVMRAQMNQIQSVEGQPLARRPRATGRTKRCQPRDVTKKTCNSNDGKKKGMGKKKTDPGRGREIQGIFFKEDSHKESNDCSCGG
UniProt P54753, residues 34-998: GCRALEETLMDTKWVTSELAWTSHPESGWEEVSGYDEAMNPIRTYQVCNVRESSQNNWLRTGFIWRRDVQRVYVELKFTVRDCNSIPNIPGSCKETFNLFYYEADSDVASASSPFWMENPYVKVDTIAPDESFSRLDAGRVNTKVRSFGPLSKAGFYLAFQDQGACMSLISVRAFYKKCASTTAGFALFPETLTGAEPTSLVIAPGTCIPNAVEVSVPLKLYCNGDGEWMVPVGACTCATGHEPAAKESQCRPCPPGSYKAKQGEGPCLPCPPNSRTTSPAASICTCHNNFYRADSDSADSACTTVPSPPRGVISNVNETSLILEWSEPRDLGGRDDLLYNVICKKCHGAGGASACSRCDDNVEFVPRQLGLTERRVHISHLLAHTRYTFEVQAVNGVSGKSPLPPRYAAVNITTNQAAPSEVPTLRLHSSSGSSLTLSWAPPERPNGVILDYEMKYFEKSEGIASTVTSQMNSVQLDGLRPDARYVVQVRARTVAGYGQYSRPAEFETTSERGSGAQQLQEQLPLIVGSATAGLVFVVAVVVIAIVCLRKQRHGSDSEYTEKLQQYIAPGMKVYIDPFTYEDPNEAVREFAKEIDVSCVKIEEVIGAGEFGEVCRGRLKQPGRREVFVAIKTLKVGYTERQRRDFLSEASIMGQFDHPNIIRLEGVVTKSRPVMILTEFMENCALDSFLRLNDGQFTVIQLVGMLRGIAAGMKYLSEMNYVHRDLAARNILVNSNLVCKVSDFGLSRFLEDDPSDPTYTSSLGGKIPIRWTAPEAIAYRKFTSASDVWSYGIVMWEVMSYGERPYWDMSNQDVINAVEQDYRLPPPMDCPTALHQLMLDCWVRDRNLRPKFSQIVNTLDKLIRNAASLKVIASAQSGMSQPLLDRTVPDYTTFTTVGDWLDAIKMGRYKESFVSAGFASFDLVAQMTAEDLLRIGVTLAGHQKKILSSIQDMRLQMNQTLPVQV
UniProt Q14160: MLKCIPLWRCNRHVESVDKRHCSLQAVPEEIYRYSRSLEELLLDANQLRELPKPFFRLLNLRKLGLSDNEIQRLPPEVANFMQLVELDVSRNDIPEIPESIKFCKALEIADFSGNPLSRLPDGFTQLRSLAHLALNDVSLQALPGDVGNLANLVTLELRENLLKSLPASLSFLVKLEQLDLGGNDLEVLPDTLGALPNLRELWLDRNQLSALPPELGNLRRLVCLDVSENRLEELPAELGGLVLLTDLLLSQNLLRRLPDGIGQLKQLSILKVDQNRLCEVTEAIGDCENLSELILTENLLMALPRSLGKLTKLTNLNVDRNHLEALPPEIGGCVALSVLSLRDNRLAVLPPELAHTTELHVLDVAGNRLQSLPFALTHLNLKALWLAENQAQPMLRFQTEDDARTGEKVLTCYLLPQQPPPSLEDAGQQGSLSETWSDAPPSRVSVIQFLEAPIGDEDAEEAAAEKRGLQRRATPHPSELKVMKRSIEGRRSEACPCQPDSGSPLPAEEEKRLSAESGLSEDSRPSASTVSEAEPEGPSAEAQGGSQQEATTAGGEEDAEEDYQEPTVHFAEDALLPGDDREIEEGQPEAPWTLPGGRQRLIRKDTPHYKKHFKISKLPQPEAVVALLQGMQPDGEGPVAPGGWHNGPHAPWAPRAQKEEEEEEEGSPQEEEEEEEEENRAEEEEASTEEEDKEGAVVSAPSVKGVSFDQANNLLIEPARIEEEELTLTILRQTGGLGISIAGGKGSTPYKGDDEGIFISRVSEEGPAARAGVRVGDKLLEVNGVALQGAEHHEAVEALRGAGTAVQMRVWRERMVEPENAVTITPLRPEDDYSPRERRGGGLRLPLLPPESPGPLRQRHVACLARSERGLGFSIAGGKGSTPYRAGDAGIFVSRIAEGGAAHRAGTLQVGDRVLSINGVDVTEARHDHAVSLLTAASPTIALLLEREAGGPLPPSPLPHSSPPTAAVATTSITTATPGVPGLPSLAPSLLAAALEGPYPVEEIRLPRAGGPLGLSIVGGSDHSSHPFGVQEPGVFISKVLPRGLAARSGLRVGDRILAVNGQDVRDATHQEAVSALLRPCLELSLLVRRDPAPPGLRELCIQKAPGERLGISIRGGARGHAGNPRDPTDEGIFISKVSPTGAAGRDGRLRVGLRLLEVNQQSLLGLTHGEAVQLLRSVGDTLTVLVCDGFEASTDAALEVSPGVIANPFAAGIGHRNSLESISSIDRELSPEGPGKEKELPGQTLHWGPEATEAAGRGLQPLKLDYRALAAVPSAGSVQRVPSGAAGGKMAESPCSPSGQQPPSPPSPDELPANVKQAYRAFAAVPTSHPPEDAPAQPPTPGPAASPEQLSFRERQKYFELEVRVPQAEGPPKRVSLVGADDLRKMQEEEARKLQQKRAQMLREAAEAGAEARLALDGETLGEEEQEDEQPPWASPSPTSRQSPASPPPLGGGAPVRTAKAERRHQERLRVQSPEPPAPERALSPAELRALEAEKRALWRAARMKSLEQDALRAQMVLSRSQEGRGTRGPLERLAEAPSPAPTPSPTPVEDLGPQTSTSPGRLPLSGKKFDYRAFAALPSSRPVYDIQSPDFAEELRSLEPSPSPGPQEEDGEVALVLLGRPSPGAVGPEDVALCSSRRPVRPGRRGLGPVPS
UniProt Q9HCM4: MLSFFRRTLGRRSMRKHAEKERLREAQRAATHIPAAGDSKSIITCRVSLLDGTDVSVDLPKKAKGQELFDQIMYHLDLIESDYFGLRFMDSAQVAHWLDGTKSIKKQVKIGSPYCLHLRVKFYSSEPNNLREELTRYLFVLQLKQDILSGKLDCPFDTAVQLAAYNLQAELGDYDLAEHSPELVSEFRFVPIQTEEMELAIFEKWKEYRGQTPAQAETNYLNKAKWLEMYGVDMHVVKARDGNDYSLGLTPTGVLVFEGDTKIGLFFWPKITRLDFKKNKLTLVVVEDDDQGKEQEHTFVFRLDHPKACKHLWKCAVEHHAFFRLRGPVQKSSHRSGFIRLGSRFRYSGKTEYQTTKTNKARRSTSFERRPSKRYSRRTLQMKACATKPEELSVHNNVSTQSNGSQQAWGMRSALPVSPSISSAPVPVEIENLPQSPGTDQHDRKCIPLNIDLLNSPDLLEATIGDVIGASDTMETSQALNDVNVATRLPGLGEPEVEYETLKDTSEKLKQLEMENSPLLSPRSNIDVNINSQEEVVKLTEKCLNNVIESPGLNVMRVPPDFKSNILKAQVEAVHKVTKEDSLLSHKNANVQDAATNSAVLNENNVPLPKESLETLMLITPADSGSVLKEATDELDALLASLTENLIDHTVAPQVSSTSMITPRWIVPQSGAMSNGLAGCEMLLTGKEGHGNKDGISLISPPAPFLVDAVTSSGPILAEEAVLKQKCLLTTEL

Experiments:
[1] = molecular target: EPHA4-BirA*-FLAG (human) (UniProt P54764); assay: proximity labelling
[2] = molecular target: EPHB4-BirA*-FLAG (human) (UniProt P54760); assay: proximity labelling
[3] = molecular target: EPHB2-BirA*-FLAG (human) (UniProt P29323); assay: proximity labelling
[4] = molecular target: EPHB3-BirA*-FLAG (human) (UniProt P54753); assay: proximity labelling
[5] = molecular target: GFP-PAR-3 (wild type) (rat) (UniProt Q9Z340); assay: affinity purification with mass spectrometry

Molecule: MARK2 (from UniProt Q7KZI7 1-788) (enzyme)
binding [2]: binds
binding [1]: binds
binding [3]: binds
binding [4]: binds

Molecule: AMOT (from UniProt Q4VCS5 1-1084)
binding [5]: binds

B1: LLGL1 (protein, UniProt Q15334 1-1064)
chain: MMKFRFRRQGADPQREKLKQELFAFNKTVEHGFPNQPSALAFDPELRIMAIGTRSGAVKIYGAPGVEFTGLHRDAATVTQMHFLTGQGRLLSLLDDSSLHLWEIVHHNGCAHLEEALSFQLPSRPGFDGASAPLSLTRVTVVLLVAASDIAALGTEGSSVFFLDVTTLTLLEGQTLAPGEVLRSVPDDYRCGKALGPVESLQGHLRDPTKILIGYSRGLLVIWNQASQCVDHIFLGNQQLESLCWGRDSSTVVSSHSDGSYAVWSVDAGSFPTLQPTVATTPYGPFPCKAINKILWRNCESGGHFIIFSGGMPRASYGDRHCVSVLRAETLVTLDFTSRIIDFFTVHSTRPEDEFDDPQALAVLLEEELVVLDLQTPGWPAVPAPYLAPLHSSAITCSAHVASVPAKLWARIVSAGEQQSPQPVSSALSWPITGGRNLAQEPSQRGLLLTGHEDGTVRFWDASGVALRPLYKLSTAGLFQTDCEHADSLAQAAEDDWPPFRKVGCFDPYSDDPRLGVQKVALCKYTAQMVVAGTAGQVLVLELSDVPVEQAVSVAIIDLLQDREGFTWKGHERLSPRTGPLPWPAGFQPRVLVQCLPPAAVTAVTLHTEWSLVAFGTSHGFGLFDYQRKSPVLARCTLHPNDSLAMEGPLSRVKSLKKSLRQSFRRIRKSRVSGKKRAANASSKLQEANAQLAEQACPHDVEMTPVQRRIEPRSADDSLSGVVRCLYFADTFLRDGAHHGPTMWAGTNSGSVFAYALEVPAAAVGGEKRPEQAVEAVLGKEVQLMHRAPVVAIAVLDGRGRPLPEPYEASRDLAQAPDMQGGHAVLIASEEQFKVFTLPKVSAKTKFKLTAHEGCRVRKVALATFASVACEDYAETCLACLTNLGDVHVFSVPGLRPQVHYSCIRKEDISGIASCVFTRHGQGFYLISPSEFERFSLSARNITEPLCSLDINWPRDATQASYRIRESPKLSQANGTPSILLAPQSLDGSPDPAHSMGPDTPEPPEAALSPMSIDSATSADTTLDTTGDVTVEDVKDFLGSSEESEKNLRNLAEDEAHACAILIK
binding [2]: binds
binding [1]: binds
binding [3]: binds
binding [4]: binds

B2: PKCι (PRKCI) (enzyme, UniProt P41743 1-596)
chain: MPTQRDSSTMSHTVAGGGSGDHSHQVRVKAYYRGDIMITHFEPSISFEGLCNEVRDMCSFDNEQLFTMKWIDEEGDPCTVSSQLELEEAFRLYELNKDSELLIHVFPCVPERPGMPCPGEDKSIYRRGARRWRKLYCANGHTFQAKRFNRRAHCAICTDRIWGLGRQGYKCINCKLLVHKKCHKLVTIECGRHSLPQEPVMPMDQSSMHSDHAQTVIPYNPSSHESLDQVGEEKEAMNTRESGKASSSLGLQDFDLLRVIGRGSYAKVLLVRLKKTDRIYAMKVVKKELVNDDEDIDWVQTEKHVFEQASNHPFLVGLHSCFQTESRLFFVIEYVNGGDLMFHMQRQRKLPEEHARFYSAEISLALNYLHERGIIYRDLKLDNVLLDSEGHIKLTDYGMCKEGLRPGDTTSTFCGTPNYIAPEILRGEDYGFSVDWWALGVLMFEMMAGRSPFDIVGSSDNPDQNTEDYLFQVILEKQIRIPRSLSVKAASVLKSFLNKDPKERLGCHPQTGFADIQGHPFFRNVDWDMMEQKQVVPPFKPNISGEFGLDNFDSQFTNEPVQLTPDDDDIVRKIDQSEFEGFEYINPLLMSAEECV
binding [2]: binds

Other lines, results leading:

binding [1]: binds
Molecule: NCK2 (from UniProt O43639 1-380)

binding [2]: binds
binding [1]: binds
binding [3]: binds
binding [4]: binds
Molecule: SCRIB (from UniProt Q14160 1-1655)

binding [2]: binds
binding [1]: binds
binding [3]: binds
binding [4]: binds
Molecule: EPB41L5 (from UniProt Q9HCM4 1-733)

binding [2]: binds
Molecule: PAR-3 (PARD3), endogenous (from UniProt Q8TEW0 1-1356)

binding [5]: binds
binding [2]: binds
B3: PAR-6B (protein, UniProt Q9BYG5 1-372)
chain: MNRSHRHGAGSGCLGTMEVKSKFGAEFRRFSLERSKPGKFEEFYGLLQHVHKIPNVDVLVGYADIHGDLLPINNDDNYHKAVSTANPLLRIFIQKKEEADYSAFGTDTLIKKKNVLTNVLRPDNHRKKPHIVISMPQDFRPVSSIIDVDILPETHRRVRLYKYGTEKPLGFYIRDGSSVRVTPHGLEKVPGIFISRLVPGGLAQSTGLLAVNDEVLEVNGIEVSGKSLDQVTDMMIANSRNLIITVRPANQRNNVVRNSRTSGSSGQSTDNSLLGYPQQIEPSFEPEDEDSEEDDIIIEDNGVPQQIPKAVPNTESLESLTQIELSFESGQNGFIPSNEVSLAAIASSSNTEFETHAPDQKLLEEDGTIITL

binding [2]: binds
binding [1]: binds
binding [3]: binds
binding [4]: binds
B4: VANGL1 (protein, UniProt Q8TAA9 1-524)
chain: MDTESTYSGYSYYSSHSKKSHRQGERTRERHKSPRNKDGRGSEKSVTIQPPTGEPLLGNDSTRTEEVQDDNWGETTTAITGTSEHSISQEDIARISKDMEDSVGLDCKRYLGLTVASFLGLLVFLTPIAFILLPPILWRDELEPCGTICEGLFISMAFKLLILLIGTWALFFRKRRADMPRVFVFRALLLVLIFLFVVSYWLFYGVRILDSRDRNYQGIVQYAVSLVDALLFIHYLAIVLLELRQLQPMFTLQVVRSTDGESRFYSLGHLSIQRAALVVLENYYKDFTIYNPNLLTASKFRAAKHMAGLKVYNVDGPSNNATGQSRAMIAAAARRRDSSHNELYYEEAEHERRVKKRKARLVVAVEEAFIHIQRLQAEEQQKAPGEVMDPREAAQAIFPSMARALQKYLRITRQQNYHSMESILQHLAFCITNGMTPKAFLERYLSAGPTLQYDKDRWLSTQWRLVSDEAVTNGLRDGIVFVLKCLDFSLVVNVKKIPFIILSEEFIDPKSHKFVLRLQSETSV
